Laboratory results taken from PubChem BioAssay AID248 (DTP/NCI, 2004).
The list shows only some results of the screen, not a fair sample: it gathers tests that were run many times, whatever their T/C, doses with no T/C, and many T/C values between a quarter and a half above the control. Other doses and runs of a compound stand elsewhere. T/C is the treated group as % of the vehicle group. Where survival is the endpoint, this PubChem deposit counts one and a half times the control or more as active, and values a quarter to a half above the control carry no call in these data; other NCI protocols may use other cut-offs. Schedules are NCI's codes, taken here to give the interval after Q, in days (D) or hours (H), and the number of doses after X. Brackets with × count equal records among those shown. Some T/C values carry the count of animals alive at the toxicity check (mostly the fifth day); without a count, all were alive then. Some entries hold several experiments; the values are given in rising order.

Tested on: L1210 leukemia ip in BDF1 mice, survival T/C
Experiment: NCI In Vivo Anticancer Drug Screen. Data for tumor model L1210 Leukemia (intraperitoneal) in B6D2F1 (BDF1) mice
Details: T/C endpoint: median survival time, higher T/C = longer survival

CN(C)/N=N/c1nc[nH]c1C(N)=O
T/C (dose: 180.0 mg/kg/injection, schedule: Q01DX009 (ip), vehicle: Klucel (hydroxypropylcellulose) (HPC), evaluated on day 30): 140 (2×) and 152 % of control | T/C (dose: 180.0 mg/kg/injection, schedule: Q01DX009 (ip), vehicle: Klucel (hydroxypropylcellulose) (HPC), evaluated on day 33): 116 % of control | T/C (dose: 180.0 mg/kg/injection, schedule: Q01DX011 (ip), vehicle: Klucel (hydroxypropylcellulose) (HPC), evaluated on day 5): 129 % of control | T/C (dose: 180.0 mg/kg/injection, schedule: Q01DX011 (ip), vehicle: Klucel (hydroxypropylcellulose) (HPC), evaluated on day 46): 127 % of control | T/C (dose: 180.0 mg/kg/injection, schedule: Q01DX012 (ip), vehicle: Klucel (hydroxypropylcellulose) (HPC), evaluated on day 5): 141 % of control | T/C (dose: 180.0 mg/kg/injection, schedule: Q01DX012 (ip), vehicle: Klucel (hydroxypropylcellulose) (HPC), evaluated on day 46): 144 % of control | T/C (dose: 180.0 mg/kg/injection, schedule: Q01DX015 (ip), vehicle: Klucel (hydroxypropylcellulose) (HPC), evaluated on day 5): 119 and 148 % of control | T/C (dose: 180.0 mg/kg/injection, schedule: Q01DX015 (ip), vehicle: Klucel (hydroxypropylcellulose) (HPC), evaluated on day 7): 101 % of control | T/C (dose: 180.0 mg/kg/injection, schedule: Q01DX015 (ip), vehicle: Klucel (hydroxypropylcellulose) (HPC), evaluated on day 20): 101 % of control | T/C (dose: 180.0 mg/kg/injection, schedule: Q01DX015 (ip), vehicle: Klucel (hydroxypropylcellulose) (HPC), evaluated on day 33): 120 % of control | T/C (dose: 180.0 mg/kg/injection, schedule: Q01DX015 (ip), vehicle: Klucel (hydroxypropylcellulose) (HPC), evaluated on day 38): 150 % of control | T/C (dose: 180.0 mg/kg/injection, schedule: Q01DX017 (ip), vehicle: Klucel (hydroxypropylcellulose) (HPC), evaluated on day 5): 150 and 151 % of control | T/C (dose: 180.0 mg/kg/injection, schedule: Q01DX017 (ip), vehicle: Klucel (hydroxypropylcellulose) (HPC), evaluated on day 33): 150 % of control | T/C (dose: 180.0 mg/kg/injection, schedule: Q01DX017 (ip), vehicle: Klucel (hydroxypropylcellulose) (HPC), evaluated on day 38): 155 % of control | T/C (dose: 200.0 mg/kg/injection, schedule: Q01DX009 (ip), vehicle: Klucel (hydroxypropylcellulose) (HPC), evaluated on day 24): 150 % of control | T/C (dose: 200.0 mg/kg/injection, schedule: Q01DX009 (ip), vehicle: Klucel (hydroxypropylcellulose) (HPC), evaluated on day 26): 140 % of control [7 of 8 alive] | T/C (dose: 200.0 mg/kg/injection, schedule: Q01DX009 (ip), vehicle: Klucel (hydroxypropylcellulose) (HPC), evaluated on day 30): 127 and 133 % of control | T/C (dose: 200.0 mg/kg/injection, schedule: Q01DX009 (ip), vehicle: Klucel (hydroxypropylcellulose) (HPC), evaluated on day 40): 166 % of control | T/C (dose: 200.0 mg/kg/injection, schedule: Q01DX017 (ip), vehicle: steroid suspending solution, evaluated on day 5): 153 % of control | T/C (dose: 200.0 mg/kg/injection, schedule: Q01DX017 (ip), vehicle: steroid suspending solution, evaluated on day 30): 133 and 153 % of control | T/C (dose: 200.0 mg/kg/injection, schedule: Q01DX017 (ip), vehicle: steroid suspending solution, evaluated on day 40): 150 % of control | T/C (dose: 200.0 mg/kg/injection, schedule: Q01DX017 (ip), vehicle: steroid suspending solution, evaluated on day 45): 155 % of control [7 of 8 alive] | T/C (dose: 200.0 mg/kg/injection, schedule: Q01DX017 (ip), vehicle: steroid suspending solution, evaluated on day 50): 144 and 150 % of control [7 of 8 alive] | T/C (dose: 200.0 mg/kg/injection, schedule: Q01DX017 (ip), vehicle: steroid suspending solution, evaluated on day 54): 150, 155, 156 % of control | T/C (dose: 200.0 mg/kg/injection, schedule: Q01DX017 (ip), vehicle: steroid suspending solution, evaluated on day 60): 150 % of control | T/C (dose: 200.0 mg/kg/injection, schedule: Q01DX017 (ip), vehicle: steroid suspending solution, evaluated on day 69): 150 % of control | T/C (dose: 300.0 mg/kg/injection, schedule: Q01DX009 (ip), vehicle: Klucel (hydroxypropylcellulose) (HPC), evaluated on day 5): 168 % of control (2×) | T/C (dose: 300.0 mg/kg/injection, schedule: Q01DX009 (ip), vehicle: Klucel (hydroxypropylcellulose) (HPC), evaluated on day 27): 168 % of control [7 of 8 alive] | T/C (dose: 300.0 mg/kg/injection, schedule: Q01DX009 (ip), vehicle: Klucel (hydroxypropylcellulose) (HPC), evaluated on day 30): 120 [7 of 8 alive], 145, 168 % of control | T/C (dose: 300.0 mg/kg/injection, schedule: Q01DX009 (ip), vehicle: Klucel (hydroxypropylcellulose) (HPC), evaluated on day 33): 111 % of control | T/C (dose: 300.0 mg/kg/injection, schedule: Q01DX012 (ip), vehicle: Klucel (hydroxypropylcellulose) (HPC), evaluated on day 5): 141 % of control | T/C (dose: 300.0 mg/kg/injection, schedule: Q01DX012 (ip), vehicle: Klucel (hydroxypropylcellulose) (HPC), evaluated on day 46): 144 % of control | T/C (dose: 300.0 mg/kg/injection, schedule: Q01DX015 (ip), vehicle: Klucel (hydroxypropylcellulose) (HPC), evaluated on day 5): 141 and 154 % of control | T/C (dose: 300.0 mg/kg/injection, schedule: Q01DX015 (ip), vehicle: Klucel (hydroxypropylcellulose) (HPC), evaluated on day 7): 106 % of control | T/C (dose: 300.0 mg/kg/injection, schedule: Q01DX015 (ip), vehicle: Klucel (hydroxypropylcellulose) (HPC), evaluated on day 20): 106 % of control | T/C (dose: 300.0 mg/kg/injection, schedule: Q01DX015 (ip), vehicle: Klucel (hydroxypropylcellulose) (HPC), evaluated on day 33): 140 % of control | T/C (dose: 300.0 mg/kg/injection, schedule: Q01DX015 (ip), vehicle: Klucel (hydroxypropylcellulose) (HPC), evaluated on day 38): 155 % of control | T/C (dose: 300.0 mg/kg/injection, schedule: Q01DX017 (ip), vehicle: Klucel (hydroxypropylcellulose) (HPC), evaluated on day 5): 121 and 128 % of control | T/C (dose: 300.0 mg/kg/injection, schedule: Q01DX017 (ip), vehicle: Klucel (hydroxypropylcellulose) (HPC), evaluated on day 33): 130 % of control [7 of 8 alive] | T/C (dose: 300.0 mg/kg/injection, schedule: Q01DX017 (ip), vehicle: Klucel (hydroxypropylcellulose) (HPC), evaluated on day 38): 122 % of control | T/C (dose: 300.0 mg/kg/injection, schedule: Q04DX003 (ip), vehicle: steroid suspending solution): 140 % of control
